According to paper PMC4244161:
Results are given in words; binding and its absence hold for the method and conditions named. Binding seen in cells or lysates may run through a third protein. Some results given as binding are weak or reduced against the parent protein; the word gives no strength.

Protein sequences, listed by entry. Tags and fused reporters are not part of them. Residues count along the entry.
UniProt O95793, residues 82-577: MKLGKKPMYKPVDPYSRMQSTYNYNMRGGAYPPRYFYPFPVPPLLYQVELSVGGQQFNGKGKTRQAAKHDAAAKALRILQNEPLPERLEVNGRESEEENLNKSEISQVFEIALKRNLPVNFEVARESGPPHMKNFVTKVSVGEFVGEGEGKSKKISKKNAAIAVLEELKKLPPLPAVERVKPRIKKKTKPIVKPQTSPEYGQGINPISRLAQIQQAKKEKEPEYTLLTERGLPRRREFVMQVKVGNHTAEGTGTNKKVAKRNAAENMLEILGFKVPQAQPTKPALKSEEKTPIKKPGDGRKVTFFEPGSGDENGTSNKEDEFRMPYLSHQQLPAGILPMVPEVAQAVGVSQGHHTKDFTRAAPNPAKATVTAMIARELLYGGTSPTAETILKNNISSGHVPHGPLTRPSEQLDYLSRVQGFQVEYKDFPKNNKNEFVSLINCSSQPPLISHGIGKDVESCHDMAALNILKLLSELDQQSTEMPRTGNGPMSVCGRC
UniProt Q9UKV8: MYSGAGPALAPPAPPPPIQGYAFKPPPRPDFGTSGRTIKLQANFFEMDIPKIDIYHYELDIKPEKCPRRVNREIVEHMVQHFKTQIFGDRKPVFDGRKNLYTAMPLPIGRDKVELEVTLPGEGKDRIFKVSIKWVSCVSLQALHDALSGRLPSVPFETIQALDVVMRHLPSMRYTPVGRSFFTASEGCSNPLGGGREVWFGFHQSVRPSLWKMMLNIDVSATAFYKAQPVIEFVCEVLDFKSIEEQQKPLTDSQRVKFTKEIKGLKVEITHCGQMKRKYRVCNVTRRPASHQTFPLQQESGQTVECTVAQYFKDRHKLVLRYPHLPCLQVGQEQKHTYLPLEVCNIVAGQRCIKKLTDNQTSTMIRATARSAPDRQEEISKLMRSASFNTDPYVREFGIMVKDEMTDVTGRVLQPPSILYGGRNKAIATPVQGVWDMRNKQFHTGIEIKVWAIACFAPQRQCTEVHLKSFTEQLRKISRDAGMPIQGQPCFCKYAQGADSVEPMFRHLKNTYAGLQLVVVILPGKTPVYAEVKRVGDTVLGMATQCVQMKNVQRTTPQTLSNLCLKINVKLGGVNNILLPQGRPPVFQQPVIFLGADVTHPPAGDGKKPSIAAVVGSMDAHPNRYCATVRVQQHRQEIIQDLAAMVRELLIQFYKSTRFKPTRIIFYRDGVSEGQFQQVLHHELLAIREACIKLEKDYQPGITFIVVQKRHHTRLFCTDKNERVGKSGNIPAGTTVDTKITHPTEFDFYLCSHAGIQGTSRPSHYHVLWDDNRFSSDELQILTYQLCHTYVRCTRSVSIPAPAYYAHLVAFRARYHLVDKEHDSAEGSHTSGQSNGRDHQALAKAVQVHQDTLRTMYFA

Key:
[1] = molecular target: TAP-tagged human Staufen1 (55 kDa isoform) (human) (UniProt O95793); assay: co-IP; two-step TAP affinity purification from extracts of co-transfected HEK293T cells: IgG-Sepharose, TEV digestion, calmodulin-agarose, EGTA elution; Western blot with anti-HA and anti-hStau1; lysis in TNE, 0.5% NP-40, with RNase inhibitor
[2] = molecular target: TAP-tagged human Staufen1 (55 kDa isoform) (human) (UniProt O95793); assay: co-IP; one-step TAP purification from extracts of transfected HEK293T cells: IgG-Sepharose, eluted by digestion with TEV; Western blot with anti-Ago2 and anti-hStau1

binding [1] | binding [2] | Substance
binds | – | Ago1-HA-Flag (from UniProt Q9UL18 1-857)
binds | – | Ago2-HA-Flag (from UniProt Q9UKV8 1-859)
binds | – | Ago3-HA-Flag (from UniProt Q9H9G7 1-860)
– | binds | endogenous Ago2 (from UniProt Q9UKV8 1-859)
